This note sets out measurements from paper PMC3178579.

Protein sequences, listed by entry. Tags and fused reporters are not part of them.
UniProt O88498: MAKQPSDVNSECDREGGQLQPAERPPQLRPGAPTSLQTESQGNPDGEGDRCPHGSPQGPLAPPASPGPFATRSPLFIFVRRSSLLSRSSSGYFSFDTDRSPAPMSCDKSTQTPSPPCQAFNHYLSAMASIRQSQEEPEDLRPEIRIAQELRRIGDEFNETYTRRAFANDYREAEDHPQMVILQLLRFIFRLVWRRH
UniProt Q9Z1P3: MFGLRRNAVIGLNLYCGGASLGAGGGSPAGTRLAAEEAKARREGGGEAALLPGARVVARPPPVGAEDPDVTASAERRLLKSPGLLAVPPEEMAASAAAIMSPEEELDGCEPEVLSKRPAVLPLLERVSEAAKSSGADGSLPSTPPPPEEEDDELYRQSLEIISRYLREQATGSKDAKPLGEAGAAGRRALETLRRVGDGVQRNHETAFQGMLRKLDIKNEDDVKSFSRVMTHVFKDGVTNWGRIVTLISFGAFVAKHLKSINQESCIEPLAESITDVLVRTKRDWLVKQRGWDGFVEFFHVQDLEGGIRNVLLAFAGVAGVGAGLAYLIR

In the assay the target is BCL2-like 11 (Bim) (rat (endogenous in INS-1E)) (UniProt O88498). The assay can be described thus: co-IP; INS-1E cell lysate in immunoprecipitation buffer; rabbit anti-BIM antibody overnight at 4°C, protein A-agarose; blot with anti-Mcl-1 and anti-BIM; cells untreated or transfected with dsRNA (PIC) for 24h (association clearly decreased after PIC).

No constants are given. Whether binding was seen depends on the method and setting. Binding seen in cells or lysates may run through a third protein. Some binding calls cover weakened binding; strength is not graded here.

On to “myeloid cell leukemia sequence 1 (Mcl-1) (from UniProt Q9Z1P3 1-330)”, for which the binding entry was “binds”.
